PubChem BioAssay AID720505 | Drosophila RNAi Screening Center, 2013
Screen: 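Genes needed for store-operated calcium entry in fly cells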 (primary screen). System: Drosophila S2R+ cells. Reagent: long dsRNA against Drosophila genes. Treatment: thapsigargin (2 µM) in calcium-free buffer to empty internal stores, then 2 mM calcium added back. Detection: 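Stores emptied by 2 µM thapsigargin without calcium, then 2 mM calcium re-added; fluo-4 fluorescence followed by FLIPR in 384-well plates, per-well averaged endpoint, raw; two screen passes, some wells retested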. Scale: calcium signal and retest calcium signal: higher = more calcium entry after store depletion. Active means: 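About 1500 genes called as lowering calcium entry, by varying amounts, judged against per-plate control wells with STIM1 as positive and Rho1 as negative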. Meaning of the calls: active = called as lowering calcium entry; inactive = not called.
The screen tested about 20,000 reagents; this is a random part of those with a known target gene and a result. Over the whole deposit, about 2,100 (10%) were called active. 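Raw plate signals without normalisation; calls rest on control-based scores that were not deposited; replicate 2 separates called from uncalled poorly.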 Names joined by + are all predicted targets of the reagent. The record does not give: the amount of reagent, the time to read-out.

| gene | amplicon | calcium signal, replicate 1 | calcium signal, replicate 2 | retest calcium signal, replicate 1 | retest calcium signal, replicate 2 | Call |
| --- | --- | --- | --- | --- | --- | --- |
| dpr15 | DRSC12891 | – | – | – | – | active |
| dpr15 | DRSC14187 | 92.1 | 76.4 | – | – | inactive |
| dpr15 | DRSC14188 | 67 | 107 | – | – | active |
| CG13724 | DRSC10053 | 89 | 164 | – | – | inactive |
| CG15020 | DRSC08474 | 87.5 | 79 | – | – | inactive |
| CG15638 | DRSC01875 | 83.8 | 88.7 | – | – | inactive |
| Oat | DRSC11043 | 102 | 107 | – | – | inactive |
| Gal | DRSC03134 | 153 | 88.4 | – | – | inactive |
| CG11562 | DRSC00316 | 194 | 119 | – | – | inactive |
| CG13102 + Rcd-1r | DRSC03266 | 150 | 127 | – | – | inactive |
| IleRS-m | DRSC10506 | 92.2 | 193 | – | – | inactive |
| CG13193 | DRSC06318 | 92.8 | 185 | – | – | inactive |
| alt | DRSC15315 | 155 | 275 | – | – | inactive |
| l(1)G0469 | DRSC19412 | 82.9 | 108 | – | – | inactive |
| l(1)G0469 | DRSC19462 | 78.5 | 110 | – | – | inactive |
| CG6966 | DRSC16156 | 152 | 207 | – | – | inactive |
| Cyp303a1 | DRSC03300 | 110 | 107 | – | – | inactive |
| CG10232 | DRSC14218 | 155 | 145 | – | – | inactive |
| Dys + snoRNA:Me18S-A1374 | DRSC16232 | 134 | 164 | – | – | inactive |
| CG42673 | DRSC08991 | – | – | – | – | active |
| CG42673 | DRSC10177 | 60.5 | 102 | – | – | inactive |
| CG42673 | DRSC10264 | 58.3 | 105 | – | – | inactive |
| CG42673 | DRSC10353 | 104 | 98.9 | – | – | inactive |
| CG42673 | DRSC10354 | 94.3 | 81.2 | – | – | inactive |
| CG1371 | DRSC06409 | 210 | 211 | – | – | inactive |
| Hacl | DRSC06061 | 133 | 166 | – | – | inactive |
| CG14722 | DRSC14944 | 152 | 116 | – | – | inactive |
| hh | DRSC16965 | 219 | 233 | – | – | inactive |
| Obp58d | DRSC04162 | 188 | 239 | – | – | inactive |
| vnd | DRSC18849 | 88.3 | 103 | 9000 | 135 | inactive |
| vnd | DRSC22487 | 94.2 | 195 | – | – | inactive |
| CG15345 (retired record) | DRSC18030 | 101 | 259 | 113 | 9297 | active |
| CG15345 (retired record) | DRSC22712 | 136 | 213 | – | – | inactive |
| fok | DRSC02103 | 120 | 83.4 | – | – | inactive |
